Results are given in words; binding and its absence hold for the method and conditions named. For some of these results: Binding seen in cells or lysates may run through a third protein. Some binding calls cover weakened binding; strength is not graded here. For some of these results: Where a sequence is shown, tags or fusion partners need not be part of it.

Amino acid sequences for entries named in this document (tags omitted). Residues count along the entry.
UniProt Q9NXA8, residues 37-310: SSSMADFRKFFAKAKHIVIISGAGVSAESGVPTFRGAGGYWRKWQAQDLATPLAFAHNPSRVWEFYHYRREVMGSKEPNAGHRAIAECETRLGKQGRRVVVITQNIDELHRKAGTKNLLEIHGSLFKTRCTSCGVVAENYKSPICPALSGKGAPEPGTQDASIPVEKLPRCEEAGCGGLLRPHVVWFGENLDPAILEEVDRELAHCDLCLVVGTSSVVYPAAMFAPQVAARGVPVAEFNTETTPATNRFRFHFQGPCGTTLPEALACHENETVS

One test addresses HA-SIRT5 (human) (UniProt Q9NXA8). The test is described as follows: co-IP; lysates of ARPE19 cells overexpressing SIRT5-HA and AKT2-GFP, 48 h after transfection; pulldown with anti-HA antibody (anti-IgG as control), western blot. For orientation: Immunoblotting shows a protein as a band on a membrane.
Test [1] concerns the target Sirtuin 5 (SIRT5), on the HuProt v3.1 human proteome array (human) (UniProt Q9NXA8). Description: peptide or protein array; HuProt v3.1 human proteome array probed with recombinant AKT2 at 1 ug/mL; GenePix analysis; only interactions with a Z-score above 6 considered; both purified.
A further test has as its target EGFP-AKT2 (human) (UniProt P31751). Description: co-IP; called a pulldown assay; AKT2 complex with secretory autophagy proteins, with or without SIRT5 overexpression; bait, cells and beads told only in Supplementary Fig. 9 (not shown).

For “EGFP-AKT2 (from UniProt P31751 1-481) (enzyme)”, in the test with HA-SIRT5 (human), the binding entry is given as “binds”.

B1: recombinant AKT2 (RAC-beta serine/threonine-protein kinase) (enzyme, human, UniProt P31751 1-481, looked up)
chain: MNEVSVIKEGWLHKRGEYIKTWRPRYFLLKSDGSFIGYKERPEAPDQTLPPLNNFSVAECQLMKTERPRPNTFVIRCLQWTTVIERTFHVDSPDEREEWMRAIQMVANSLKQRAPGEDPMDYKCGSPSDSSTTEEMEVAVSKARAKVTMNDFDYLKLLGKGTFGKVILVREKATGRYYAMKILRKEVIIAKDEVAHTVTESRVLQNTRHPFLTALKYAFQTHDRLCFVMEYANGGELFFHLSRERVFTEERARFYGAEIVSALEYLHSRDVVYRDIKLENLMLDKDGHIKITDFGLCKEGISDGATMKTFCGTPEYLAPEVLEDNDYGRAVDWWGLGVVMYEMMCGRLPFYNQDHERLFELILMEEIRFPRTLSPEAKSLLAGLLKKDPKQRLGGGPSDAKEVMEHRFFLSINWQDVVQKKLLPPFKPQVTSEVDTRYFDDEFTAQSITITPPDRYDSLGLLELDQRTHFPQFSYSASIRE
notes: AKT2, RAC-beta serine/threonine-protein kinase; recombinant protein used as the probe on the HuProt v3.1 array; source: recombinant
As to B1, the binding entry in test [1] is recorded as “binds”.

B2: Synaptotagmin Like 1 (SYTL1), found in the AKT2 pulldown (protein, UniProt Q8IYJ3 1-562)
chain: MPQRGHPSQEGLWALPSLPMAHGPKPETEGLLDLSFLTEEEQEAIAGVLQRDARLRQLEEGRVSKLRASVADPGQLKILTGDWFQEARSQRHHNAHFGSDLVRASMRRKKSTRGDQAPGHDREAEAAVKEKEEGPEPRLTIDEAPQERLRETEGPDFPSPSVPLKASDPEEASQAQEDPGQGDQQVCAEEADPELEPASGGEQEPRPQQAQTKAASQILENGEEAPGPDPSLDRMLSSSSSVSSLNSSTLSGSQMSLSGDAEAVQVRGSVHFALHYEPGAAELRVHVIQCQGLAAARRRRSDPYVKSYLLPDKQSKRKTAVKKRNLNPVFNETLRYSVPQAELQGRVLSLSVWHRESLGRNIFLGEVEVPLDTWDWGSEPTWLPLQPRVPPSPDDLPSRGLLALSLKYVPAGSEGAGLPPSGELHFWVKEARDLLPLRAGSLDTYVQCFVLPDDSQASRQRTRVVRRSLSPVFNHTMVYDGFGPADLRQACAELSLWDHGALANRQLGGTRLSLGTGSSYGLQVPWMDSTPEEKQLWQALLEQPCEWVDGLLPLRTNLAPRT
Regarding B2, the binding entry in the test with EGFP-AKT2 (human) is on record as “binds”.

B3: synaptosome-associated protein 23 (SNAP23) (protein, UniProt O00161 1-211)
chain: MDNLSSEEIQQRAHQITDESLESTRRILGLAIESQDAGIKTITMLDEQKEQLNRIEEGLDQINKDMRETEKTLTELNKCCGLCVCPCNRTKNFESGKAYKTTWGDGGENSPCNVVSKQPGPVTNGQLQQPTTGAASGGYIKRITNDAREDEMEENLTQVGSILGNLKDMALNIGNEIDAQNPQIKRITDKADTNRDRIDIANARAKKLIDS
On to B3, for which the binding entry in the test with EGFP-AKT2 (human) is “binds”.

These data come from article PMC11271488, “The AKT2/SIRT5/TFEB pathway as a potential therapeutic target in non-neovascular AMD” (Nature Communications, 2024).
